{"sequences": {"note": "By UniProt entry, the sequences of proteins in these tests, tags left out.", "UniProt P35372, whole entry": "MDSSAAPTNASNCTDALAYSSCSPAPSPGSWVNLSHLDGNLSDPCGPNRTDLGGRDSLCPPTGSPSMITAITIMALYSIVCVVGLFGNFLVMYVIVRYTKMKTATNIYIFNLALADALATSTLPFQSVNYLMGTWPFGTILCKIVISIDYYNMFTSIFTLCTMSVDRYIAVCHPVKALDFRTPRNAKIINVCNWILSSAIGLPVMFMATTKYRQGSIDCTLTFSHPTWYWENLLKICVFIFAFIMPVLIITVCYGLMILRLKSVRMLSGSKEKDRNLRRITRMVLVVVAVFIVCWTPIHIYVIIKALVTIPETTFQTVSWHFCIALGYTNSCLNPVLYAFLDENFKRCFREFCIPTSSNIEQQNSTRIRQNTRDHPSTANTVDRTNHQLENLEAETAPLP"}, "source": "patent US9827228B2", "about": "“Opioid receptor modulators and use thereof” (priority 2015, dated 2017)", "note": "Some results were stated once for a whole list of compounds, not compound by compound."}
{"target": "T1, hMOR (Homo sapiens, UniProt P35372)", "T1 construct": "host or cells: CHO-K1", "format": "cell-based", "settings": "combined with naloxone", "experimental": "Chinese hamster ovary (CHO)-K1 cells expressing hMOR and Gα15 (CHO-K1/MOR/Gα15) were cultured in F12 medium (GIBCO) supplemented with 10 μg/mL Hygromycin B (Invivogen), 20 μg/mL Zeocin (Invivogen) and P/S/F (100 units/mL penicillin, 100 μg/mL streptomycin, 10% fetal bovine serum). The cultures were incubated at 37° C. in a humidified 5% CO2 incubator.\nOne day prior to running the assay, CORNING® black 96-well assay plates having a clear flat bottom were coated with a 0.1 mg/mL Poly-L-Lysine solution. CHO-K1/MOR/Gα15 cells were suspended in F12 medium and plated at a density of about 8×10^4 cells/well in 200 μL medium. Cells were incubated under a humidified atmosphere of 10% CO2 at 37° C. overnight to reach an 80-90% confluent cell monolayer before the assay. On the day of the assay, 150 μL medium was removed from each well of the plates. To each well were added FLIPR® calcium assay reagents (Molecular Devices Corporation, Sunnyvale, Calif., USA; 50 μL) dissolved in 1× assay buffer (HBSS: KCl 5 mM, KH2PO4 0.3 mM, NaCl 138 mM, NaHCO3 4 mM, Na2HPO4 0.3 mM, d-glucose 5.6 mM, with additional 20 mM HEPES and […], pH 7.4) and 2.5 mM probenecid. After incubation at 37° C. for 1 hour, a test compound, alone or together with naloxone (a MOR antagonist), was also added to each well. Using a FlexStationlll instrument (Molecular Devices Corp.), increments of the [Ca^2+]i fluorescence after robotic injection of the cell suspension were monitored at 1.52 s intervals using the excitation wavelength of 485 nm and the emission wavelength of 525 nm. The [Ca^2+]i fluorescence was measured up to 90 s after the injection. The fluorescence intensity from 6 to 12 wells of cells were averaged and the relative amount of [Ca^2+]i release was determined by integrating the AUC of the [Ca^2+]i fluorescence averages.\nA CHO-K1 cell line expressing MOR and Gα15 (GenScript) was used to set up a sensitive high-throughput screen (HTS) system. […] The HTS was performed in the absence or presence of naloxone (an opioid antagonist; 20 nM), to identify AAMs."}
{"smiles": "CCc1ccccc1Nc1nc(-c2sc(C)nc2C)cs1", "note": "[Compound 1, N-(2-Ethylphenyl)-2′,4′-dimethyl-4,5′-bi-1,3-thiazol-2-amine]", "AUC": "greater than 5000"}
{"smiles": "COc1cccc(C)c1Nc1nc(-c2sc(C)nc2C)cs1", "note": "[Compound 4, N-(2-Methoxy-6-methylphenyl)-2′,4′-dimethyl-4,5′-bi-1,3-thiazol-2-amine]", "AUC": "greater than 5000"}
{"smiles": "COc1ccc(Nc2nc(-c3sc(C)nc3C)cs2)c(OC)c1", "note": "[Compound 14, N-(2,4-Dimethoxyphenyl)-2′,4′-dimethyl-4,5′-bi-1,3-thiazol-2-amine]", "AUC": "greater than 5000"}
{"smiles": "Cc1cc(C)c(Nc2nc(-c3sc(C)nc3C)cs2)c(C)c1", "note": "[Compound 17, 2′,4′-Dimethyl-N-(2,4,6-trimethylphenyl)-4,5′-bi-1,3-thiazol-2-amine]", "AUC": "greater than 5000"}
{"smiles": "Cc1nc(C)c(-c2csc(Nc3cccc(F)c3C)n2)s1", "note": "[Compound 21, N-(3-Fluoro-2-methylphenyl)-2′,4′-dimethyl-4,5′-bi-1,3-thiazol-2-amine]", "AUC": "greater than 5000"}
{"smiles": "Cc1ccc(Nc2nc(-c3sc(C)nc3C)cs2)c(C)c1", "note": "[Compound 29, N-(2,4-Dimethylphenyl)-2′,4′-dimethyl-4,5′-bi-1,3-thiazol-2-amine]", "AUC": "greater than 5000"}
{"smiles": "Cc1nc(C)c(-c2csc(Nc3c(C)cccc3F)n2)s1", "note": "[Compound 33, N-(2-Fluoro-6-methylphenyl)-2′,4′-dimethyl-4,5′-bi-1,3-thiazol-2-amine]", "AUC": "greater than 5000"}
{"smiles": "COc1ccc(Nc2nc(-c3sc(C)nc3C)cs2)c(C)c1", "note": "[Compound 35, N-(4-Methoxy-2-methylphenyl)-2′,4′-dimethyl-4,5′-bi-1,3-thiazol-2-amine]", "AUC": "greater than 5000"}
{"smiles": "Cc1nc(C)c(-c2csc(Nc3ccc(Br)cc3C(F)(F)F)n2)s1", "note": "[Compound 43, N-[4-Bromo-2-(trifluoromethyl)phenyl]-2′,4′-dimethyl-4,5′-bi-1,3-thiazol-2-amine]", "AUC": "greater than 5000"}
{"smiles": "CCc1cccc(C)c1Nc1nc(-c2sc(C)nc2C)cs1", "note": "[Compound 47, N-(2-Ethyl-6-methylphenyl)-2′,4′-dimethyl-4,5′-bi-1,3-thiazol-2-amine]", "AUC": "greater than 5000"}
{"smiles": "Cc1nc(C)c(-c2csc(Nc3cccc(C)c3C)n2)s1", "note": "[Compound 53, N-(2,3-Dimethylphenyl)-2′,4′-dimethyl-4,5′-bi-1,3-thiazol-2-amine]", "AUC": "greater than 5000"}
{"smiles": "Cc1nc(C)c(-c2csc(Nc3c(C)cc(F)cc3C)n2)s1", "note": "[Compound 55, N-(4-Fluoro-2,6-dimethylphenyl)-2′,4′-dimethyl-4,5′-bi-1,3-thiazol-2-amine]", "AUC": "greater than 5000"}
{"smiles": "Cc1nc(C)c(-c2csc(Nc3ccccc3O)n2)s1", "note": "[Compound 65, 2-[(2′,4′-Dimethyl-4,5′-bi-1,3-thiazol-2-yl)amino]phenol]", "AUC": "greater than 5000"}
{"smiles": "COc1cccc(Nc2nc(-c3sc(C)nc3C)cs2)c1C", "note": "[Compound 85, N-(3-Methoxy-2-methylphenyl)-2′,4′-dimethyl-4,5′-bi-1,3-thiazol-2-amine]", "AUC": "greater than 5000"}
{"smiles": "CCc1nc(C)c(-c2csc(Nc3ccccc3CC)n2)s1", "note": "[Compound 95, 2′-Ethyl-N-(2-ethylphenyl)-4′-methyl-4,5′-bi-1,3-thiazol-2-amine]", "AUC": "greater than 5000"}
{"smiles": "CCc1ccccc1Nc1nc(-c2oc(C)nc2C)cs1", "note": "[Compound 102, 4-(2,4-Dimethyl-1,3-oxazol-5-yl)-N-(2-ethylphenyl)-1,3-thiazol-2-amine]", "AUC": "greater than 5000"}
{"smiles": "Cc1ccc(Nc2nc(-c3oc(C)nc3C)cs2)c(C)c1", "note": "[Compound 105, 4-(2,4-Dimethyl-1,3-oxazol-5-yl)-N-(2,4-dimethylphenyl)-1,3-thiazol-2-amine]", "AUC": "greater than 5000"}
{"smiles": "Cc1cc(C)c(Nc2nc(-c3oc(C)nc3C)cs2)c(C)c1", "note": "[Compound 106, 4-(2,4-Dimethyl-1,3-oxazol-5-yl)-N-(2,4,6-trimethylphenyl)-1,3-thiazol-2-amine]", "AUC": "greater than 5000"}
{"smiles": "CCc1ccccc1Nc1ncc(-c2sc(C)nc2C)o1", "note": "[Compound 107, 5-(2,4-Dimethyl-1,3-thiazol-5-yl)-N-(2-ethylphenyl)-1,3-oxazol-2-amine]", "AUC": "greater than 5000"}
